Tested on: alloxan induced diabetic rats
Test: Alloxan induced diabetic rats: hydroxychloroquine with metformin
Assay type: in vivo, Wistar rats
Conditions: HCQ 160 or MET 500 mg/kg/day p.o.
Experimental: Thirty Wistar rats weighing 150-200 g of either sex were divided into six groups consisting of five rats each. Experimental diabetes was induced in rats by injecting alloxan monohydrate intraperitonially at a dose of 90 mg/kg body weight. Rats with blood sugar level of 250-350 mg/dl, were considered as diabetic and employed in the study. Group 1 (normal control) consisted of normal rats that neither received alloxan monohydrate nor any drug. Group 2 served as diabetic control which received vehicle orally. […] The study drugs were administered for nine days.

SMILES	Blood Glucose (mg/dl) Initial	Body Weight (g) Initial
CCN(CCO)CCCC(C)Nc1ccnc2cc(Cl)ccc12 (stereo not shown) [HCQ, hydroxychloroquine]	296.00 ± 15.93 mg/dL	169.2 ± 10.20 g
CN(C)C(=N)N=C(N)N [MET, metformin]	283.4 ± 23.49 mg/dL	181.2 ± 10.40 g
